# Data from PMC7801115, “Preclinical in vitro screening of newly synthesised amidino substituted benzimidazoles and benzothiazoles” (Journal of Enzyme Inhibition and Medicinal Chemistry, 2021).
# System: HCC827
# Assay: Cell viability assay, 3D hanging drop cell culture (CellTiter GLO 3D)
# Assay type: cell-based
# Conditions: Homo sapiens, HCC827, 72 h, read-out: IC50 antitumor activity HCC827 3D
# Procedure: Compounds are diluted 1:3. 500 nL (for 2 D cell culture) or 400 nL (for 3 D cell culture) of compound were transferred from mother plate to test plate by using Mosquito (TTP labtech). DMSO percentage in test concentrations was 0.5 − 1.0%. Starting concentration of the test compounds and standard compound doxorubicin was 50 µM (2 D cell culture) or 100 µM (3 D cell culture).
# Cells were grown in 96 well Perfecta 3 D hanging drop plates 5000 cell/well for 4 days until spheres were formed (and checked under the microscope). After sphere formation cells were treated with compounds followed by 72 h incubation. Cell viability assay was performed according to the manufacturer’s instruction, using CellTiter GLO 3 D for 3 D cell culture (Promega); cell incubation was 5 min on the shaker followed by 25 min incubation in the dark. Plates were read using PE EnVision luminescence.
# Calculation of IC50 data, curves and QC analysis is made by using Excel tools and GraphPadPrism software (La Jolla, CA), v. […] QC criteria parameters (Z', S:B, R2, HillSlope) were checked for every IC50 curve.
smiles,measurement,value
"CN[C@@H]1C[C@H]2O[C@@](C)([C@@H]1OC)n1c3ccccc3c3c4c(c5c6ccccc6n2c5c31)C(=O)NC4 [Staurosporine, reference compound]",IC50,20 nM
